The assay deals with 3×Flag-tagged NEK6 (NIMA-related kinase-6) (UniProt Q9HC98). Briefly: affinity purification with mass spectrometry; Flag-NEK6 precipitated from 293T lysate with anti-Flag beads at 4 °C overnight; beads washed five times with buffer containing 10 μg/mL RNase A; eluate resolved by SDS-PAGE, Coomassie staining, LC-MS/MS; empty vector as control.

Sequences of proteins named here, by UniProt entry; tags and fusion partners are left off.
UniProt Q9HC98: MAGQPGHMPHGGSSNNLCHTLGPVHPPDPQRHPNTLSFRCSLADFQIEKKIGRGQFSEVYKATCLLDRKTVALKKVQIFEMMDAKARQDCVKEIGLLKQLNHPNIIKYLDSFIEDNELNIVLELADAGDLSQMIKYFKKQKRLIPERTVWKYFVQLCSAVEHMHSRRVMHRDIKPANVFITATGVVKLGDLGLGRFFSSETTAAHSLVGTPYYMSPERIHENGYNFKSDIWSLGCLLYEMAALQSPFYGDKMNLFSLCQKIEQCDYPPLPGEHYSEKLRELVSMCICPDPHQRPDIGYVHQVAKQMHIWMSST
UniProt P67809: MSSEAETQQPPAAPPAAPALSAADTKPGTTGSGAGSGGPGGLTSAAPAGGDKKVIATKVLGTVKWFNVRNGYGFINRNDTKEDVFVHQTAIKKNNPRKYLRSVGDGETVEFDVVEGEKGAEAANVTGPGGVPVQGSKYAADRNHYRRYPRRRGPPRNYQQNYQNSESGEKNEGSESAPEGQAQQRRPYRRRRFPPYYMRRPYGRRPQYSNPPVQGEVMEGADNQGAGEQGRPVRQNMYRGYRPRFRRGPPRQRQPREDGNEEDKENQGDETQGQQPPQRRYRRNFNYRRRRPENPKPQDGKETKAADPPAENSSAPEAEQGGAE

Results are given in words; binding and its absence hold for the method and conditions named. In cells and extracts the contact can be indirect. A yes stands for co-enrichment or nearness to the bait. Other partners may have been found.

Take “Y-box-binding protein 1 (YBX1), endogenous in 293T cells (from UniProt P67809 1-324)”: the binding result was “binds”.
